Measured values: PMC5542241
These are yes or no findings as the source states them, for the method shown. Binding seen in cells or lysates may run through a third protein.

By UniProt entry, the sequences of proteins in these tests, tags left out.
UniProt P21796: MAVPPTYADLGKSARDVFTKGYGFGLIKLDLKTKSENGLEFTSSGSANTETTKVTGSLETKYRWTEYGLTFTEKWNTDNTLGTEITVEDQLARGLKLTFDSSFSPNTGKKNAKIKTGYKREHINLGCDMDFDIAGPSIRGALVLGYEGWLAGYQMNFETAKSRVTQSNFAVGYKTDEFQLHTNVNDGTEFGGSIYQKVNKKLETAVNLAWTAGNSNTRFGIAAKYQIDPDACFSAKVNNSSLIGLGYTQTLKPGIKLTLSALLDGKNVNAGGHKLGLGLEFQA

Target: T1, hexokinase 2 (human (endogenous in LM3 and BEL-7402 HCC cells)) (UniProt P52789)
T1 sequence: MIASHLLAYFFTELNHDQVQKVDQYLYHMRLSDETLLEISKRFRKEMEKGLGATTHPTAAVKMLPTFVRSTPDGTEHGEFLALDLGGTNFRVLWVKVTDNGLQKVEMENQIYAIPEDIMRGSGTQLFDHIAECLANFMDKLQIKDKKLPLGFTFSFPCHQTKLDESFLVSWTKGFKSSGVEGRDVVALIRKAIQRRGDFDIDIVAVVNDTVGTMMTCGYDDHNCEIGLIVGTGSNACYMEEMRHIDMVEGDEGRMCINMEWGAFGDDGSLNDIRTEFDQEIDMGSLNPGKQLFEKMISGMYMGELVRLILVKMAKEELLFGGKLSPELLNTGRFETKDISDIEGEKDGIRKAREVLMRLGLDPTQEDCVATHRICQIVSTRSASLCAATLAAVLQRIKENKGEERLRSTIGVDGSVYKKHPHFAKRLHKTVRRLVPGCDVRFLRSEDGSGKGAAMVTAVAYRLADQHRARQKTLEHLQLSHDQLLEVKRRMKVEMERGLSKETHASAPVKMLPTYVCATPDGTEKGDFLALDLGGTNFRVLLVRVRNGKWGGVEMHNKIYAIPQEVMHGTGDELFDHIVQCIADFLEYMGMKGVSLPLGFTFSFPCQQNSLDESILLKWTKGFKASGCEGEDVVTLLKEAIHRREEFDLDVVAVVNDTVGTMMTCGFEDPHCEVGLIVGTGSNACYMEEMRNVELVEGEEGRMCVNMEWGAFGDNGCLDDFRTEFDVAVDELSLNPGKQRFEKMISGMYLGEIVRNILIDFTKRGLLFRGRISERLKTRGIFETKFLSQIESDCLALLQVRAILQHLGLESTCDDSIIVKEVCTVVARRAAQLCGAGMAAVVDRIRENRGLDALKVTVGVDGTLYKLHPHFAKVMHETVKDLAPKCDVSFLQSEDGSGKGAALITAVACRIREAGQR
Assay: co-IP; Pierce Co-Immunoprecipitation kit, HK2 or VDAC1 antibody cross-linked to amino link plus coupling resin; lysate of HCC cells after methyl jasmonate (MJ) treatment; immunoblot of HK2 and VDAC1

voltage dependent anion channel 1 (from UniProt P21796 1-283)
binding: no binding (condition: after MJ treatment of the cells)
